# Laboratory results: PubChem BioAssay AID493014 (National Center for Advancing Translational Sciences (NCATS), 2011)
# The whole screen tested about 340,000 compounds, of which about 170 (0.05%) were called active. Inconclusive means that the source gave no clear call. Such entries were picked first, then a sample of the others. Calls come from the whole dose curve; as a rule, active = well fitted inhibition curve with a large enough effect in the signal ratio, with a control signal flat (not every such curve was filed as active); inconclusive = small, poorly fitted or top-dose-only effect, or effect the other way, or a change in a side signal; inactive = flat fitted curve, though single readings scatter; the % refers to the signal ratio. Potencies of inconclusive entries are doubtful fits and often do not repeat.
# Experiment: qHTS Assay to Find Inhibitors of Chronic Active B-Cell Receptor Signaling;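 for activity change, negative = inhibition: plate controls were basal doxycycline-induced cells for no effect and cells given 10 µM MG132 for full effect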
# Conditions: ABC-DLBCL IkBa-CBG/CBR reporter, luminescence ratio (green luciferase fused to IkBa over red control in TMD8 lymphoma cells), 4 h; activity change, negative = inhibition: at 46.1 µM (top of the series)
# How it was run: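 TMD8 human ABC-DLBCL cells with doxycycline-inducible IκBα–green luciferase fusion and unfused red luciferase, in 0.5% FBS medium; compounds up to 46 uM, 4 h at 37C. Green/red luminescence ratio, filter-overlap corrected, fitted to concentration-response curves.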
# Potency is the fitted concentration of half-maximal effect.
SMILES,Potency,"activity change, negative = inhibition"
CCOC(=O)C1=C(O)/C(=C\c2cc(C)n(-c3ccc(F)cc3)c2C)N=C1C,"inconclusive: 8.91 µM [falling, partial curve]",
c1ccc(CCNc2nc(-c3cccnc3)cs2)cc1,,inconclusive: -17.1%
Cc1ccc2nc(NC(=O)c3ccc(Br)o3)sc2c1,"inconclusive: 10 µM [falling, partial curve]",
O=C(N/N=C/c1ccccc1[N+](=O)[O-])c1cccs1,"inconclusive: 35.5 µM [falling, single point]",
C[C@@]12C(=O)OC(=O)[C@]1(C)C1CCC2O1,,inconclusive: 16.2%
CCn1c(SCc2ccccc2Cl)nc2ccccc21,,inactive: -2.09%
CN1CCN(CC(=O)Nc2cccc(S(=O)(=O)N(C)c3ccccc3)c2)CC1,,inconclusive: 2.95%
Cc1ccnc(SCC(=O)c2cccc([N+](=O)[O-])c2)n1,,inconclusive: 10.4%
N#Cc1cc(-c2ccccc2)cnc1Sc1ccc(Cl)cc1,,inactive: 4.9%
Cc1nc([N+](=O)[O-])c(Br)n1CC(=O)c1ccc2ccccc2c1,,inconclusive: -11.6%
CCc1ccc(C(=O)NNC(=O)Cn2c(=O)cnc3ccccc32)cc1,,inconclusive: 0.789%
CCN(CC)C(=O)[C@H]1CC(CC(=O)NCc2cccc(C(F)(F)F)c2)C(=O)N2CCc3c([nH]c4ccc(OC)cc34)[C@]12C (stereo partly specified),,inactive: -5.38%
COc1ccc(-c2ccc(C#N)c(SCC(=O)OCc3ccccc3)n2)cc1OC,,inconclusive: 12.4%
Cc1c(-c2ccc(F)cc2)nc(N)c(C#N)c1-c1ccco1,,inactive: 7.45%
COc1cccc(NC(=S)Nc2ccc(F)cc2)c1,,inconclusive: 9.41%
CCOC(=O)N1CCN(CC(=O)N2c3ccccc3Sc3ccccc32)CC1,,inconclusive: 1.55%
O=C(CCSc1ccccc1)N1CCN(c2ccccc2)CC1,,inconclusive: -0.971%
COc1ccc(NC(=O)Nc2ccc(F)c(Cl)c2)cc1,,inconclusive: -11.9%
COc1ccc2oc(=O)c(C(=O)N3CCc4ccccc43)cc2c1,,inconclusive: 1.65%
C/C(=N\NC(=S)NC(C)C)c1ccc2c(c1)OCCO2,"inconclusive: 29.1 µM [cytotoxic, single point]",
COc1ccc(CCN2CCC(Nc3nc4ccccc4n3Cc3ccc(F)cc3)CC2)cc1,"inconclusive: 12.6 µM [cytotoxic, single point]",

# Exported with tabs: 5 of the compounds above.
SMILES	Potency	activity change, negative = inhibition
Cc1c(-c2ccc(F)cc2)nc(N)c(C#N)c1-c1ccco1		inactive: 7.45%
COc1cccc(NC(=S)Nc2ccc(F)cc2)c1		inconclusive: 9.41%
CCOC(=O)N1CCN(CC(=O)N2c3ccccc3Sc3ccccc32)CC1		inconclusive: 1.55%
O=C(CCSc1ccccc1)N1CCN(c2ccccc2)CC1		inconclusive: -0.971%
COc1ccc(NC(=O)Nc2ccc(F)c(Cl)c2)cc1		inconclusive: -11.9%

# Carrying on:

SMILES,Potency,"activity change, negative = inhibition"
Cc1ccc2c(CC(=O)N(C)c3c(N)n(Cc4ccccc4)c(=O)[nH]c3=O)coc2c1,,inconclusive: -11.5%
O=C(COc1ccccc1)NC(=S)Nc1cccc([N+](=O)[O-])c1,"inconclusive: 14.6 µM [falling, partial curve]",
CC1=Nc2cc(C(=O)NCC3CCCO3)ccc2Sc2ccc(Br)cc21 (stereo unspecified),"inconclusive: 20 µM [falling, single point]",
O=C(NCCNS(=O)(=O)c1ccccc1Cl)c1cc(OCC(F)(F)F)ccc1OCC(F)(F)F,,inconclusive: 0.403%
CC(=O)Nc1cc(OC(C)=O)c2nonc2c1OC(C)=O,"inconclusive: 3.98 µM [falling, single point]",
CN(C)C(=O)c1ccc(NC(=O)c2cccc(S(=O)(=O)N3CCCCCC3)c2)cc1,,inactive: -0.425%
CNC(=O)CC1C(=O)N(C)C(=S)N1NC(=O)c1ccc(Cl)cc1 (stereo unspecified),,inconclusive: 10%
O=C(COc1ccccc1Cl)Nc1ccc(NC(=O)c2ccco2)cc1,,inconclusive: 4.44%
O=C(CCC(=O)N1CCOc2ccc(Cl)cc21)NCCCN1CCN(c2ccccc2F)CC1,,inactive: 0.194%
CCN(Cc1ccncc1)C(=O)C(CO)c1ccccc1 (stereo unspecified),,inactive: -5.95%
COC(=O)COc1ccc(NC(=O)Cn2nc(-c3ccccc3)c3ccccc3c2=O)cc1,"inconclusive: 6.31 µM [falling, single point]",
CCOC(=O)C(C)Oc1cccc2c(=O)n(CC(=O)NCc3ccccc3)ccc12 (stereo unspecified),"inconclusive: 8.91 µM [falling, partial curve]",
CC(C)OCCCn1c(SCC(=O)N2CCc3ccccc32)nc2ccccc2c1=O,,inactive: -0.868%
CC(C)(OC(=O)c1ccc(C#N)cc1)c1cc2ccccc2c(=O)o1,,inactive: 14.6%
O=C(N/N=C/c1ccco1)Nc1ccccc1,"inconclusive: 6.51 µM [falling, single point]",
Cc1cc2c(N=O)c(NO)ccc2[nH]1,,inconclusive: -3.98%
CCOc1ccc(Nc2oc(-c3ccc(Cl)cc3)nc2C#N)cc1,,inconclusive: -20.7%
Cc1noc(C)c1-c1csc(N2CCC(C(N)=O)CC2)n1,,inconclusive: -4.08%
COc1cccc(-c2ccc(NC(=O)C3CCCN(CCCn4cccn4)C3)cc2)c1 (stereo unspecified),,inactive: 4.04%
O=C(c1cc(-c2ccc(Cl)cc2)n(-c2ccc(Cl)cc2)n1)N1CCOCC1,,inactive: -3.26%
O=C(c1cc(COc2ccccc2)on1)N1CCCC(OCc2cccnc2)C1 (stereo unspecified),,inactive: 1.17%

# Single values from above:
# Potency, O=C(COc1ccccc1)NC(=S)Nc1cccc([N+](=O)[O-])c1 is entered as inconclusive: 14.6 µM [falling, partial curve]
# activity change, negative = inhibition, O=C(COc1ccccc1Cl)Nc1ccc(NC(=O)c2ccco2)cc1 is entered as inconclusive: 4.44%
# activity change, negative = inhibition, O=C(NCCNS(=O)(=O)c1ccccc1Cl)c1cc(OCC(F)(F)F)ccc1OCC(F)(F)F is entered as inconclusive: 0.403%

# (next part)

SMILES,Potency,"activity change, negative = inhibition"
Cc1nc2cc(NC(=O)CCS(=O)(=O)c3ccccc3)ccc2s1,,inconclusive: 5.32%
CC(=O)c1cnc2nc(SCc3ccccc3)nn2c1C,,inconclusive: 2.11%
COC(=O)C1=C(C)N(Cc2ccccc2)C(=O)N[C@H]1c1ccccc1,,inactive: -2.26%
CN(C)c1ccc(-c2nnn(CC(=O)NCc3ccc4c(c3)OCO4)n2)cc1,"inconclusive: 7.94 µM [falling, partial curve, poor fit]",
COc1cc(OC)cc(C(=O)Nc2nnc(NC(=S)Nc3ccccc3)s2)c1,,inactive: -5.62%
CC(C)OCCCNC(=O)c1ccc2c(c1)NC(=O)c1ccccc1S2,"inconclusive: 14.1 µM [falling, partial curve, poor fit]",
CCSc1nc2c(cnn2-c2ccc(C)c(C)c2)c(=O)[nH]1,,inconclusive: -0.242%
CSc1nc(N(C)NC(=O)c2cccc(C)c2)c2ccccc2n1,"inconclusive: 0.282 µM [falling, full curve, poor fit]",
CN1CCN(C(=S)NC(=O)/C=C/c2ccccc2Cl)CC1,,inconclusive: 5.55%
Cc1cc(=O)oc(C)c1C(=O)NC1CC(C)(C)NC(C)(C)C1,,inconclusive: 0.08%
N/C(=N\OC(=O)COc1ccc(Br)cc1)c1cccnc1,,inconclusive: 2.25%
CCOC(=O)Nc1ccc2ncn(C)c(=O)c2c1,"inconclusive: 29.1 µM [falling, single point]",
COc1ccc(NC(=O)CSc2nnc(-c3ccccc3Cl)n2Cc2ccco2)c(OC)c1,,inconclusive: 6.66%
CC1=CC(C)(C)N(S(=O)(=O)c2ccc(F)cc2)c2ccccc21,"inconclusive: 29.1 µM [falling, single point]",
COc1ccc2c(c1)c1nc3ccccc3nc1n2Cc1ccc(OC)c(OC)c1,,inactive: 10.2%
CC(Sc1nc(=O)cc(N)n1CCc1ccccc1)C(=O)Nc1ccc(Cl)cc1 (stereo unspecified),,inconclusive: 25.9%
CSc1nsc(SCC(=O)Nc2ccc(C(N)=O)cc2)n1,,inactive: -12.9%
O=C(O)CC(NC(=S)NCc1ccccc1)C(=O)O (stereo unspecified),,inconclusive: -0.992%
OC(COCCC12CC3CC(CC(C3)C1)C2)CN1CCCCC1 (stereo unspecified),"inconclusive: 29.1 µM [falling, single point]",
NC(=O)c1ccccc1NC(=O)Nc1cccc(Cl)c1Cl,,inactive: 2.77%
Cc1ccc(NC(=O)CSCC(=O)Nc2ncc3c(n2)CC(c2ccco2)CC3=O)cc1 (stereo unspecified),,inconclusive: 3.46%

SMILES,Potency,"activity change, negative = inhibition"
COc1ccc(CC(=O)OCC(=O)Nc2c(C)n(C)n(-c3ccccc3)c2=O)cc1OC,,inactive: -0.203%
CC1CC(C)CN(C(=O)Nc2ccc(Br)cc2)C1 (stereo unspecified),,inconclusive: 6.42%
CCc1noc(C)c1C(=O)Nc1nc(-c2cccs2)cs1,"inconclusive: 1.03 µM [rising, partial curve, poor fit]",
Cc1ccc(N=Nc2ccc(C)cc2NC(=O)Nc2ccccc2F)cc1,"inconclusive: 31.6 µM [falling, single point]",
CN(C)C(CNc1ncccn1)c1ccccc1 (stereo unspecified),"inconclusive: 35.5 µM [falling, partial curve, poor fit]",
CC(=O)c1cccc(OCc2cc(C(=O)N3CCC(N4CCCCC4)CC3)no2)c1,,inconclusive: 0.948%
COc1ccc(NC(=O)CSc2nccn2Cc2ccco2)cc1,"inconclusive: 31.6 µM [falling, partial curve, poor fit]",
Cc1noc(C)c1COc1cccc(C(=O)Nc2ccc(Br)cc2F)c1,"inconclusive: 5.8 µM [falling, partial curve, poor fit]",
O=C(Nc1ccncc1)Nc1cccc(C(F)(F)F)c1,,inconclusive: 6.56%
Nc1nc(Nc2ccccc2)nc(N2CCCC2)c1[N+](=O)[O-],,inconclusive: 3.97%
COc1cccc(C(=O)NC2=NCCS2)c1OC,,inconclusive: 2.33%
COc1cccc(Cn2cc(/C=N/NC(=O)c3cc(O)cc(O)c3)c3ccccc32)c1,"inconclusive: 12.6 µM [falling, partial curve]",
CCCCC(=O)OCC(=O)c1[nH]c(C)c(C(=O)OCC)c1C,,inconclusive: 11.7%
Cc1ccc(NS(=O)(=O)c2ccc(CCC(=O)N3CCOCC3)cc2)cc1,,inconclusive: 13.4%
CN(C)C(=O)N1CCC(C(=O)N2CCCC(C(=O)c3cccc4ccccc34)C2)CC1 (stereo unspecified),,inconclusive: -9.06%
O=C1CC[C@@H](CN(Cc2ccccc2)Cc2cn[nH]c2-c2cc3ccccc3o2)N1,,inconclusive: 1.32%
CCCNC(=O)c1ccc(N2CCC3(CC2)CC(c2cccc(Br)c2)=NO3)c(NC(=O)c2ccc(Br)cc2)c1,,inconclusive: -0.105%
O=C(Nc1cc(Cl)cc(Cl)c1)c1ccc(F)c(S(=O)(=O)N2CCc3ccccc32)c1,"inconclusive: 6.31 µM [falling, partial curve, poor fit]",
